Experimental data taken from patent publication US5917012 (dated 1999).
HELM strings list residues between dots; [ac] is acetyl, [am] amide, other brackets name non-standard units.

Test: general procedure: Fmoc solid-phase peptide synthesis; PyBOP, HOBt and DIEA
Settings: whole synthesis

**Q.** Which crude yield does the source give for “PEPTIDE1{[Mca].G.D.A.E.[pTyr].A.A.[Lys(DNP)].R.[am]}$$$$V2.0” here?
**A.** Its crude yield is 97%.
